Test results as given in the supplement of paper PMC10849652.
The list shows a part of the results.

The chains behind the UniProt entries cited, without tags or fusion partners. Where a name states a change or a piece, a line headed by the entry shows the natural chain unless it says otherwise.
UniProt Q99436: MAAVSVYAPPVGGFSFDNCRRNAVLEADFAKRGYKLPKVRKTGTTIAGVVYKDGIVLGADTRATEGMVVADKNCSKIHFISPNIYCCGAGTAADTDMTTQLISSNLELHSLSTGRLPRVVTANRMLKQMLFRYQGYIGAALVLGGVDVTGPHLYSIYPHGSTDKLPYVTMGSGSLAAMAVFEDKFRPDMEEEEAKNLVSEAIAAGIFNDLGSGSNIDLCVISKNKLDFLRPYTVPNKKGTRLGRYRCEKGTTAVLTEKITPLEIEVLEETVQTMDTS
UniProt Q9H939: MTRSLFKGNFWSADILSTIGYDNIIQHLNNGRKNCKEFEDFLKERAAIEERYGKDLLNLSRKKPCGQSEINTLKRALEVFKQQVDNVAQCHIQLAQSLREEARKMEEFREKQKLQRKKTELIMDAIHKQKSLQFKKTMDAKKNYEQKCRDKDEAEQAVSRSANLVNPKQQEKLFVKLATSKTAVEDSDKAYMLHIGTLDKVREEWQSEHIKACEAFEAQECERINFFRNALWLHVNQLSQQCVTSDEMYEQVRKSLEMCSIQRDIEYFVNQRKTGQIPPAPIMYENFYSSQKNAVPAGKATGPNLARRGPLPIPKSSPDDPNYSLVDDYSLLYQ
UniProt P28066: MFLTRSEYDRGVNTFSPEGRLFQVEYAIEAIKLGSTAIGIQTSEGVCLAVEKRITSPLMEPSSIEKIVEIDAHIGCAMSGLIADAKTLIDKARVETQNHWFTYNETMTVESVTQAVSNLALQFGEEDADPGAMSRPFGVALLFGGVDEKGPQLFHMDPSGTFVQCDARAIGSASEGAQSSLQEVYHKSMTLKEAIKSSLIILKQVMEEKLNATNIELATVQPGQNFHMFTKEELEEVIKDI
UniProt Q9BT73: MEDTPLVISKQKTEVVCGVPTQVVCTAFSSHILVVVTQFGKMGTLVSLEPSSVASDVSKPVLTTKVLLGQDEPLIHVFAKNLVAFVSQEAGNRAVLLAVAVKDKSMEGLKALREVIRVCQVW
UniProt Q05397, whole entry, looked up: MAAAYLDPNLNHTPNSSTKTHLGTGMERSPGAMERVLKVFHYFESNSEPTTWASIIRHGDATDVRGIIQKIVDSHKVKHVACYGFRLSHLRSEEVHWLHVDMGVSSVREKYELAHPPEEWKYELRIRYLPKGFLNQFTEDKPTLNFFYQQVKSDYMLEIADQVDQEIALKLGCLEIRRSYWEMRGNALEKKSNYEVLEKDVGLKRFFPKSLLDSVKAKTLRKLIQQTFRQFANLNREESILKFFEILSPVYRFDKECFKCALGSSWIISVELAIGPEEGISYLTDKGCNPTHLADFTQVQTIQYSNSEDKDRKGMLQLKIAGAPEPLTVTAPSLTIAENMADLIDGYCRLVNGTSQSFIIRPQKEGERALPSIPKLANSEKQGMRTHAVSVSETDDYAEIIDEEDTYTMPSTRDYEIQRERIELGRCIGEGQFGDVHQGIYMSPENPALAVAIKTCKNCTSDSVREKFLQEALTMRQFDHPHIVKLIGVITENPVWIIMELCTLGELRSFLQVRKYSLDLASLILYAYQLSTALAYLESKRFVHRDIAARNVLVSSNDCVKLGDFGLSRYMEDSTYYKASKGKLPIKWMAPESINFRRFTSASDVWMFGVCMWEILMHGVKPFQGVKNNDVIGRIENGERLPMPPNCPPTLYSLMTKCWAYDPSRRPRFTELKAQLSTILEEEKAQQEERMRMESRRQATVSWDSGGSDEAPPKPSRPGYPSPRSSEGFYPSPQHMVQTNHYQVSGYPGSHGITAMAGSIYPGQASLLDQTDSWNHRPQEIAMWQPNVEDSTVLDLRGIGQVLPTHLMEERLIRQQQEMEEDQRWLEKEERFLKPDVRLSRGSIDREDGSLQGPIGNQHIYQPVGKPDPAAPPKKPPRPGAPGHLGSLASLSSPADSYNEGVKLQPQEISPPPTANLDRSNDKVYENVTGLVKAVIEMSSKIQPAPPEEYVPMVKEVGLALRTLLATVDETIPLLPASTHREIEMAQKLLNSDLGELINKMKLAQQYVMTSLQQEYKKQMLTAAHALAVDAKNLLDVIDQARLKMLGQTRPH
UniProt Q9H7Z7: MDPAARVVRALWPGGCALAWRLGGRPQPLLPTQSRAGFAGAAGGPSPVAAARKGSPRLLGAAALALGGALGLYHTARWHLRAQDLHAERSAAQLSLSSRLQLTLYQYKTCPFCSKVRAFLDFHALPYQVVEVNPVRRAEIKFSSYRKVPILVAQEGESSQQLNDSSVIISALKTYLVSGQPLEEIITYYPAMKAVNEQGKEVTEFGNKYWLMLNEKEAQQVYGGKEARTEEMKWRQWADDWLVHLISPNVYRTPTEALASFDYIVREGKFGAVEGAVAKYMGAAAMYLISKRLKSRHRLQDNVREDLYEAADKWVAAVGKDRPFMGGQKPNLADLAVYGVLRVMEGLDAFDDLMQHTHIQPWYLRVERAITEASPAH
UniProt Q7Z6K3: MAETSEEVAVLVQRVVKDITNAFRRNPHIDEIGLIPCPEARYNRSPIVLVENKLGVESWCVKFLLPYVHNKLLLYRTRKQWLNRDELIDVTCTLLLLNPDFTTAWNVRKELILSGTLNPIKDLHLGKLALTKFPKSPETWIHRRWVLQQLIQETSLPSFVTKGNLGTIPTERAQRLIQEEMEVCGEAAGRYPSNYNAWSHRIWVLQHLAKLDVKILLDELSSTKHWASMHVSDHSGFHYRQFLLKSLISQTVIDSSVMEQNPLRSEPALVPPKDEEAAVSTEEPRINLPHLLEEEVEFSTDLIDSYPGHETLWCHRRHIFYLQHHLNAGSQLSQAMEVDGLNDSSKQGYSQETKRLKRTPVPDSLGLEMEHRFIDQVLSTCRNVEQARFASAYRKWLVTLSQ
UniProt P49023, whole entry, looked up: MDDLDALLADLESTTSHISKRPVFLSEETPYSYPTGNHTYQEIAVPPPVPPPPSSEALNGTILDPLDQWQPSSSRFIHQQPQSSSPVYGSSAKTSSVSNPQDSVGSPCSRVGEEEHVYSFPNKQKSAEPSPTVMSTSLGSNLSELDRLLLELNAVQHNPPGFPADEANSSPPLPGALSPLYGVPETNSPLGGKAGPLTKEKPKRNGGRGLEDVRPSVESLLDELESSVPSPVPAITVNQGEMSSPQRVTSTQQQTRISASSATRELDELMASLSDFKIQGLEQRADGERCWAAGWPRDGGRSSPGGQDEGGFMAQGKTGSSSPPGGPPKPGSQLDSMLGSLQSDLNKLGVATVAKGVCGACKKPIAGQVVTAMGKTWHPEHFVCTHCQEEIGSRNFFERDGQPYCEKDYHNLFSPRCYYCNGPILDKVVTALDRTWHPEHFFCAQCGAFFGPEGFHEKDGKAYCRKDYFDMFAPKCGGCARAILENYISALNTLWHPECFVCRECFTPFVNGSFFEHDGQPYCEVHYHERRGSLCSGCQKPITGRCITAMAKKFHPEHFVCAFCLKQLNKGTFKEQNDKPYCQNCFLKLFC
UniProt P47897: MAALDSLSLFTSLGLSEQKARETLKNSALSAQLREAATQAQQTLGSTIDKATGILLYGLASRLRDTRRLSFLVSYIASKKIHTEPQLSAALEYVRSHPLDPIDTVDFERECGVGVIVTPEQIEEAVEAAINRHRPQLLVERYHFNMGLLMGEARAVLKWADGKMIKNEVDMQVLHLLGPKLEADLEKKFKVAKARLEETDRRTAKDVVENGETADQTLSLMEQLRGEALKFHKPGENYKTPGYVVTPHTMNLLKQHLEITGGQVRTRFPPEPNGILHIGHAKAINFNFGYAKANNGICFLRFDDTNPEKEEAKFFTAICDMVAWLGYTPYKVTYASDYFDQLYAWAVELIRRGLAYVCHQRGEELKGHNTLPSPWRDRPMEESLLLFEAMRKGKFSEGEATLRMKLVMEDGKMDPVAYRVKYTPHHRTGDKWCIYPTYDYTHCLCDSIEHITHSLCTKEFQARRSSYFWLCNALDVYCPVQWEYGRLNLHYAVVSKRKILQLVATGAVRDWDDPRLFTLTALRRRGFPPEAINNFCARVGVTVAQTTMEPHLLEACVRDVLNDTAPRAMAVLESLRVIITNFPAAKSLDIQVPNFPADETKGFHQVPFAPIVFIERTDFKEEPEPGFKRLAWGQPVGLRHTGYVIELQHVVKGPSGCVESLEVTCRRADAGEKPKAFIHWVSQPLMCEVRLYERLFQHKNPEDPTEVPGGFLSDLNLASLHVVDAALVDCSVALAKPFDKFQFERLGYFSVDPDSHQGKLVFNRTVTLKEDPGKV
UniProt P35236: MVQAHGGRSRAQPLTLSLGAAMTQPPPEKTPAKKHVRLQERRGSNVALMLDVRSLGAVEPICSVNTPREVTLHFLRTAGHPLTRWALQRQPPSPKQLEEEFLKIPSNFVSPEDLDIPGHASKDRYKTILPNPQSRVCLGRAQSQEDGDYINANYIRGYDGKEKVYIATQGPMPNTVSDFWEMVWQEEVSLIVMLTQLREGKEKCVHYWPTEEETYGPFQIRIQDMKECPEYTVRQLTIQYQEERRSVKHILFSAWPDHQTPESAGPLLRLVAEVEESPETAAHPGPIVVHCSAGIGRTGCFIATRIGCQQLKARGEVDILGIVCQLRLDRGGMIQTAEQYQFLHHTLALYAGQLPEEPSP
UniProt Q9NRG1: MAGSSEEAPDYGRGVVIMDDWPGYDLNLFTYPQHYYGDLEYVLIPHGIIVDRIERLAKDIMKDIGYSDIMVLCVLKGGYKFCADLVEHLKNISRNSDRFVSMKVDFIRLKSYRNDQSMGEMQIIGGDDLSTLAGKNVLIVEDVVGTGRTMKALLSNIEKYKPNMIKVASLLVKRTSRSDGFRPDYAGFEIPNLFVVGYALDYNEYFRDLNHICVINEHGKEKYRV
UniProt P08575: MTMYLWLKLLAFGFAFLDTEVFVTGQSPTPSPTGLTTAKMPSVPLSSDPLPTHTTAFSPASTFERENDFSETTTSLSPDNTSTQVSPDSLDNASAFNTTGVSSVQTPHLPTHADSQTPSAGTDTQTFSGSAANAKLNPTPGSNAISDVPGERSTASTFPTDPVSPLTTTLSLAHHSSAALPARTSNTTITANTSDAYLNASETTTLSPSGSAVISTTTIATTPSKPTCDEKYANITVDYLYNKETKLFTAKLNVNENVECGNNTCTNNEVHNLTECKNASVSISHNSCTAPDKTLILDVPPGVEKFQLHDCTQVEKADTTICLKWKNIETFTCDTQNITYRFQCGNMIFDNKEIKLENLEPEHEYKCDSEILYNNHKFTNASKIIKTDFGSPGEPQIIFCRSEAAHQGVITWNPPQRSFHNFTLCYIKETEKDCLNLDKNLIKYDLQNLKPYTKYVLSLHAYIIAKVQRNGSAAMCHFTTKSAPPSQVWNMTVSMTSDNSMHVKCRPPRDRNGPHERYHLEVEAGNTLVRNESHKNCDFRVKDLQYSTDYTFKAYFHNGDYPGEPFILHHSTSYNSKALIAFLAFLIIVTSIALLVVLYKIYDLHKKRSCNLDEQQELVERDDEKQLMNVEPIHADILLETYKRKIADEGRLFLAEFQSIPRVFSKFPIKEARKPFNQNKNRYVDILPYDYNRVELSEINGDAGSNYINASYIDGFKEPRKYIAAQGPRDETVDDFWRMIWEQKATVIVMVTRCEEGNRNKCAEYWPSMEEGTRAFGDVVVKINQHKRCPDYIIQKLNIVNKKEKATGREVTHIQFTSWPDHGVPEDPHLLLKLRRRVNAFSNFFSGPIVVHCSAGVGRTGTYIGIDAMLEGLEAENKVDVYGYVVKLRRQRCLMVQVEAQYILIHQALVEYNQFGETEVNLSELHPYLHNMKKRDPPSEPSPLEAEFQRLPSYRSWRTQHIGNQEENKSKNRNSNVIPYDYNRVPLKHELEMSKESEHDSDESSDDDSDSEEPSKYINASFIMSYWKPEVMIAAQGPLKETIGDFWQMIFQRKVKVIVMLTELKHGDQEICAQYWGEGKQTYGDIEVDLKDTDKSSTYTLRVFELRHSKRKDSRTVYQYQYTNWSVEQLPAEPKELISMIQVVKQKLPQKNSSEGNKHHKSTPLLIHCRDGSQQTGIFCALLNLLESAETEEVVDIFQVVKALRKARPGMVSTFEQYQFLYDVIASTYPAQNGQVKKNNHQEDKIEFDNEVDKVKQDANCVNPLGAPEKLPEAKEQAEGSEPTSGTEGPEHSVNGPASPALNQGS
UniProt Q9Y606: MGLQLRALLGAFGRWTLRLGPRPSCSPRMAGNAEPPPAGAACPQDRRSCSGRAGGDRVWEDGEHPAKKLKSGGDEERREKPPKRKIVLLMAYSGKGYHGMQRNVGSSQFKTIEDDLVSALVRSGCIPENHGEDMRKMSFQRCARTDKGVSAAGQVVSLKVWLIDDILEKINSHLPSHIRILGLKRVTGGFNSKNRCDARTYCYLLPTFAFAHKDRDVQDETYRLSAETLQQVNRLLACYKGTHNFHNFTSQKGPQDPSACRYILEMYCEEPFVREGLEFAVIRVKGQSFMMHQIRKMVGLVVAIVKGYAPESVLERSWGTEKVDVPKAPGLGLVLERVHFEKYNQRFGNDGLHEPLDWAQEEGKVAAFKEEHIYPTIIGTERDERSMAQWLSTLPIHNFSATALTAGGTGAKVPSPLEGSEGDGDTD

Compound: c1cn2cc(-c3ccc4cn[nH]c4c3)nc(Nc3ccc(N4CCOCC4)cc3)c2n1 [entospletinib]
Assay: log2 fold change, soluble protein after heating vs DMSO (PISA); higher = thermal stabilisation; K562 cells, 10 uM, 30 min; active = over 0.2 and 3.5 SD of the protein, either way, in both replicates (recomputed)
How it was run: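 For each measurement, 10 μM compound was applied for 30 min to K562 cells at 2×10^6 cells/mL. Aliquots were heated for 3 min across 48°C-58°C, pooled, and extracted in PBS with 0.5% NP-40 at 4°C; the supernatant after 21,000xg for 90 min was soluble protein. This was quantified by TMTpro 16plex LC-MS/MS with channel sums equalised, and thermal stability was reported relative to control samples from duplicates, on a log2 fold-change scale.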

log2 fold change, inactive:
PTCD3 (UniProt Q96EY7) 0.082
QTRT2 isoform 4 (UniProt Q9H974) 0.019
PSMB7 (UniProt Q99436) 0.024
PSAT1 (UniProt Q9Y617) -0.019
PSTPIP2 (UniProt Q9H939) 0.032
PTGS1 isoform 6 (UniProt P23219) -0.068
PZP (UniProt P20742) 0.199
PSPH (UniProt P78330) -0.002
PSMA5 (UniProt P28066) 0.017
PYCR2 (UniProt Q96C36) 0.069
PSMF1 (UniProt Q92530) 0.024
QDPR (UniProt P09417) -0.018
PSMA7 isoform 2 (UniProt O14818) 0.114
QPCTL (UniProt Q9NXS2) 0.027
PRUNE2 isoform 3 (UniProt Q8WUY3) 0.24
PXMP4 (UniProt Q9Y6I8) -0.025
PSMG3 (UniProt Q9BT73) 0.008
PTBP3 isoform 4 (UniProt O95758) -0.001
PTK2 (UniProt Q05397) 0.016
PTGES2 (UniProt Q9H7Z7) 0.023
PTAR1 (UniProt Q7Z6K3) 0.082
PXN (UniProt P49023) -0.001
QARS (UniProt P47897) 0.165
PTPRN2 isoform 3 (UniProt Q92932) -0.472
QSOX2 (UniProt Q6ZRP7) -0.072
PTPN7 isoform 3 (UniProt P35236) 0.214
PRTFDC1 (UniProt Q9NRG1) -0.01
PUS7L (UniProt Q9H0K6) 0
PTPRC (UniProt P08575) -0.005
PSMB2, A0A087WVV1 -0.539
PUS1 (UniProt Q9Y606) 0.478
QSOX1 (UniProt O00391) 0.044

2 entries picked at random from the list so far:
log2 fold change, inactive:
PTGS1 isoform 6 (UniProt P23219) -0.068
PTPN7 isoform 3 (UniProt P35236) 0.214
